Assay results: PubChem BioAssay AID2417 (National Center for Advancing Translational Sciences (NCATS), 2010)
Screen size: about 140,000 compounds; about 4,300 (3.1%) were called active. The inconclusive results got no clear call from the source; some entries with a clear call stand among them for comparison.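 Rule for the calls: active = readout at or below -70, meaning at least 70% loss of cells showing the perinucleolar compartment, a nuclear body marking cancer cells; inconclusive = readout between -30 and a set limit; inactive = the rest.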

Assay: High Content Assay for Compounds that inhibit the Assembly of the Perinucleolar Compartment;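 note: plate controls were DMSO wells for no effect and camptothecin positive control wells for full effect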
Conditions: PC3M PTB-GFP, PNC prevalence imaging, 16 h; at 10 µM; active compounds read low
In short: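 PC3M cells stably expressing PTB-GFP, 750–1000 cells/well, treated 16 h at 37 °C with compound (23 nl of library stock), in duplicate. After paraformaldehyde fixation and Hoechst stain, imaged at 20x; PNC prevalence scored by image analysis.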

SMILES	activity change (PNC), negative = inhibition
COc1ccccc1NC(=S)N(Cc1ccco1)Cc1cc2ccc(C)c(C)c2[nH]c1=O	active: -84.2%
CN(C(=O)c1ccc(S(=O)(=O)NC2CCCC2)cc1)C1CCCCC1	inconclusive: -36.2%
CN=C(Nc1cc(Cl)ccc1Cl)SC1CC(=O)N(c2ccc(C(=O)OC)cc2)C1=O (stereo not given)	inactive: -21.2%
O=C(CSc1nnnn1-c1cccc2ccccc12)N1CCOCC1	inconclusive: -51.5%
CCn1cc(C(=O)NCc2ccccc2Cl)cn1	inconclusive: -52.1%
CCc1nc(SCC(=O)NNC(=O)C(C)C)c2ccccc2n1	inconclusive: -69.6%
O=C(Nc1ccncc1)c1ccc2c(c1)OCCO2	inactive: 17.1%
COC(=O)c1sc(-c2ccccc2)cc1NC(=O)c1cc(OC)cc(OC)c1	inconclusive: -40.3%
Cc1cc(C)nc(SCC(=O)Nc2ccc(S(=O)(=O)NCCO)cc2)n1	inconclusive: -69%
COc1ccccc1NC(=O)c1cnc(Nc2ccccc2OC)c2ccccc12	active: -85.6%
COc1ccc(N(CN2C(=O)c3ccccc3C2=O)C(=O)C(C)C)cc1	inconclusive: -33.1%
COC(=O)Nc1nc2ccc(Sc3ccccc3)cc2[nH]1	inconclusive: -70.2%
CCCn1c(=O)[nH]c(=O)c2[nH]cnc21	inconclusive: -41.8%
CN1C(=O)c2ccccc2C(C(=O)NCc2ccco2)C1c1c[nH]c2ccccc12 (stereo not given)	inconclusive: -59.3%
Cc1ccc(NC(=O)c2ccc(CSc3nccc(C)n3)cc2)cc1	inconclusive: -30.3%
CCOC(=O)/C(=N/Nc1ccccc1)Sc1nnnn1-c1ccc(C)cc1	inconclusive: -32.8%
CCn1c(SCC(=O)Nc2nc(C)c(C)s2)nnc1-c1cccs1	inconclusive: -58.1%
C[C@@H](C(=O)NCc1ccccn1)[C@@H]1C[C@@]1(C)[C@@H](NC(=O)OCc1ccccc1)c1ccccc1	inactive: 27.2%
CCOC(=O)C1CCN(C(=O)c2ccccc2NS(=O)(=O)c2ccc(F)cc2)CC1	inconclusive: -56.1%
Cc1cc(C)c(C#N)c(SCc2nnc(-c3ccccc3)o2)n1	inactive: 0.566%
Cc1cnc(C(=O)Nc2cccc3cccnc23)cn1	inactive: -28%
Cc1cc(NC(=O)CSc2nc3ccccc3c(=O)n2C2CCCC2)no1	active: -82.8%
CCc1nnc(N/N=C/c2ccc(N3CCC(C)CC3)c([N+](=O)[O-])c2)n1N	inactive: 1.08%

SMILES	activity change (PNC), negative = inhibition
C[n+]1cnc(-c2ccccc2)cc1-c1ccccc1	inconclusive: -56.1%
O=c1c2cnn(-c3ccc(F)cc3)c2ncn1Cc1ccc(F)cc1	inconclusive: -48.8%
Cc1ccc(C2=NN(C(=O)CSc3nc(N)cc(N)n3)C(c3ccco3)C2)cc1 (stereo not given)	active: -113%
COc1ccc(-c2nnc(-c3ccc(N)cc3)o2)cc1	inconclusive: -38%
O=C(NCc1cccnc1)c1ccccc1[N+](=O)[O-]	inactive: 2.2%
O=C(NCc1nnc(SCc2ccc(C(F)(F)F)cc2)n1-c1ccccc1)C12CC3CC(CC(C3)C1)C2	inconclusive: -31.7%
COc1ccc(C(CNC(=O)c2cc(=O)[nH]c3ccccc23)N2CCCC2)cc1 (stereo not given)	inconclusive: -32.4%
CC(C)CC(NC(=O)C1CCC(C)CC1)C(=O)NCc1ccccn1 (stereo not given)	inconclusive: -38.9%
Cc1ccccc1C(=O)NNC(=S)Nc1cccc(C(F)(F)F)c1	active: -112%
CSc1nc(NC(C)=O)nc(C)c1Br	inactive: 52.3%
Cc1ccccc1Nc1nc(Nc2ccccc2C)nc(SC2=NCCS2)n1	inconclusive: -40%
OC[C@H]1O[C@@H](n2cnc3c(NC4CCCC4)ncnc32)[C@H](O)[C@@H]1O	active: -115%
CCOc1ccc(N(CC(=O)NC2CCCC2)S(=O)(=O)c2c(C)noc2C)cc1	inactive: 3.61%
CCOCCn1c(CN2CCC(Cc3ccccc3)CC2)nc2c1c(=O)n(C)c(=O)n2C	inconclusive: -62.4%
O=C(NC1CCCCC1)C1CCN(c2cnccn2)CC1	active: -94.5%
O=C(/C=C/c1ccc2c(c1)OCO2)NCCSCc1ccc(Cl)cc1	inconclusive: -38.5%
CCCc1c(C)nc2c(Br)cccc2c1Cl	inconclusive: -55.6%
Cc1ccc(N=C2CCCN2Cc2ccccc2)c(C#N)c1	inactive: 58.7%
COc1ccc(C(=O)NC(=S)Nc2ccc3c(c2)Cc2ccccc2-3)cc1	inconclusive: -45%
CC(C)(C)C(=O)NC(=S)NCc1ccccc1	inconclusive: -67%
C=CCn1c(Cc2csc(N)n2)nnc1SCC(=O)Nc1ccc(C(=O)OCC)cc1	inconclusive: -53.7%
CCNC(=S)N/N=C1\CCCCc2ccccc21	inactive: 7.49%
COc1ccc(S(=O)(=O)NCc2ccc3c(c2)cc(C)n3C)cc1	inactive: 16%

SMILES	activity change (PNC), negative = inhibition
CCn1c(/C=C/N(C)c2ccccc2)[n+](CC)c2ccc(Cl)cc21	inconclusive: -38.1%
CCN(CC)CCN1C(=O)c2ccccc2NC1c1cccc(F)c1 (stereo not given)	inconclusive: -50.7%
O=C(Nc1ccc(Cl)cc1)N(Cc1nc2ccccc2c(=O)[nH]1)Cc1cccs1	inconclusive: -32.6%
CC(C)CC(=O)NC(=S)Nc1ccc(NC(=O)c2cccs2)cc1	inactive: 33.8%
COc1ccc(-n2nc(C(=O)NCC(=O)Nc3cccc(C)n3)c3ccccc3c2=O)cc1	inconclusive: -34.1%
CCc1cccc(NC(=O)CN(C)S(=O)(=O)c2cnc[nH]2)c1	inconclusive: -33%
CCC(CC)COC(=O)C(C#N)c1nc2ccccc2nc1N1CCOCC1 (stereo not given)	inconclusive: -49.7%
O=C(C1CCN(S(=O)(=O)N2CCC3(CC2)OCCO3)CC1)N1CCc2ccccc2C1	inconclusive: -51%
Cc1ccc2[nH]c(=O)c(COC(=O)c3cccs3)cc2c1	inconclusive: -71.5%
COC(=O)/C=c1\sc2ncnn2c1=O	active: -81%
C[C@@H](C(=O)NCc1ccc(S(C)(=O)=O)cc1)[C@H]1C[C@]1(C)[C@H](NC(=O)OCc1ccccc1)c1ccccc1	inactive: -9.29%
Cc1cccc(N2CC(O)=C(c3nc4ccccc4n3C)C2=N)c1	inconclusive: -36.8%
Cc1ccc(Cn2cc(/C=C/C(=O)O)c(-c3ccccc3)n2)cc1	inconclusive: -32.5%
CN(CC(=O)NCCc1ccccc1)S(=O)(=O)c1cnc[nH]1	inactive: -5.8%
O=C(CCCn1c(SCC(=O)c2ccc(Cl)cc2)nc2ccccc2c1=O)NCc1ccco1	inconclusive: -37.6%
Cc1cccc(NC(=S)NNC(=O)c2ccc(Br)o2)c1	inactive: -8.08%
C=CCSC1=N/C(=C\c2ccc3c(c2)OCO3)C(=O)S1	inactive: -23.4%
CCn1ncc(C2=NOC(C(=O)NCc3ccccc3)C2)c1C (stereo not given)	inconclusive: -61.6%
N#Cc1c(-c2ccc(F)cc2)cc(-c2cccnc2)nc1N	active: -88.9%
CN(CCC#N)C(=O)COC(=O)c1ccc(Cl)c(S(N)(=O)=O)c1	inconclusive: -42.4%
Cc1ccc(-c2csc(NC(=O)C3CCN(S(=O)(=O)c4cccs4)CC3)n2)cc1	inactive: 1.11%
CCCCn1c(/N=C/c2ccc3c(c2)OCO3)nc2ccccc21	inconclusive: -55%
Cc1[nH]c2ccccc2c1/C=N/Nc1nc(N2CCCCC2)nc(N2CCCCC2)n1	inactive: 44.1%

An excerpt from above in order of heavy-atom count, rising:
SMILES	activity change (PNC), negative = inhibition
CN(CC(=O)NCCc1ccccc1)S(=O)(=O)c1cnc[nH]1	inactive: -5.8%
CN(CCC#N)C(=O)COC(=O)c1ccc(Cl)c(S(N)(=O)=O)c1	inconclusive: -42.4%
CC(C)CC(=O)NC(=S)Nc1ccc(NC(=O)c2cccs2)cc1	inactive: 33.8%
O=C(/C=C/c1ccc2c(c1)OCO2)NCCSCc1ccc(Cl)cc1	inconclusive: -38.5%
CN=C(Nc1cc(Cl)ccc1Cl)SC1CC(=O)N(c2ccc(C(=O)OC)cc2)C1=O (stereo not given)	inactive: -21.2%
O=C(C1CCN(S(=O)(=O)N2CCC3(CC2)OCCO3)CC1)N1CCc2ccccc2C1	inconclusive: -51%

More results:

SMILES	activity change (PNC), negative = inhibition
Cc1ccc(S(=O)(=O)N(C)Cc2ccc(-c3nnc4n3CCC4)cc2)cc1	inactive: 2.8%
NC(C(=O)O)C1CC(Cl)=NO1 (stereo not given)	inactive: -2.73%
S=C(NCc1ccccc1)NCc1ccc(CNC(=S)NCc2ccccc2)cc1	inconclusive: -65%
CNc1ccc(Br)cc(C(=O)/C=C/c2cc(OC)ccc2OC)c1=O	inactive: 17.8%
O=C(NCCc1ccccn1)c1cc(-c2ccc(Cl)c(Cl)c2Cl)nc2ccccc12	inconclusive: -76.7%
Cc1cccc(N2CCN(C(=O)CC(NC(=O)c3ccccc3Cl)c3ccccc3)CC2)c1C (stereo not given)	inconclusive: -30.8%
CCCOc1ccc(C(=O)Nc2ccc(Cl)cn2)cc1	inconclusive: -56.8%
Cc1ccc(-c2csc(N)n2)s1	inconclusive: -51.7%
Cc1ccc(-c2nnc(-c3ccc(Br)cc3)o2)o1	inconclusive: -34.3%
Cc1ccc(S(=O)(=O)n2nc(-c3ccco3)nc2SCc2ccccc2)cc1	inconclusive: -30.7%
COc1cc([N+](=O)[O-])cc(/C=N/NC(=O)C(C)Nc2cccc(C)c2)c1O (stereo not given)	inconclusive: -46.1%
Cc1ccc(CNC(=O)c2csc3c2CCCCC3)cc1	inactive: 59.9%
CCCCC(=O)Nc1ccc(NC(=O)c2ccccc2OC)cn1	inactive: 21.3%
CCN(CCCNC(=O)C1CCC(=O)N1Cc1ccc(F)cc1)c1cccc(C)c1 (stereo not given)	inactive: 43.4%
CCOc1nc(-c2ccccc2)ccc1-c1noc(-c2ccncc2)n1	inconclusive: -40%
CC1=C(C(=O)Nc2ccc(C)cc2C)C(c2ccc(Cl)cc2)n2nc(C(=O)OC(C)C)nc2N1 (stereo not given)	inconclusive: -79.9%
O=C(O)c1ccc(N/N=C/c2ccc(F)c(F)c2)cc1	inconclusive: -32.9%
CC(=O)Nc1cccc(OCC(O)Cn2c(C)nc3ccccc32)c1 (stereo not given)	inconclusive: -36.8%
c1ccc2nc(N3CCCC3)c(N3CCCC3)nc2c1	inconclusive: -55.9%
COc1ccc(NC(=O)CSc2ccccc2)c(OC)c1	active: -81.2%
CCCC1CCC(=NNS(=O)(=O)c2ccc(C)c([N+](=O)[O-])c2)CC1 (stereo not given)	inconclusive: -45.8%
